Laboratory results as given in patent US20100137440A1, “LYSINE RIBOSWITCHES, STRUCTURE-BASED COMPOUND DESIGN WITH LYSINE RIBOSWITCHES, AND METHODS AND COMPOSITIONS FOR USE OF AND WITH LYSINE RIBOSWITCHES” (Yale University, priority 2006, published 2010).
Some entries share one result that the patent states for a list of compounds. At least one compound was matched to its structure with a doubt left.

Columns and labels:
B. subtilis = assay type: cell-based
B. anthracis = assay type: cell-based, Bacillus anthracis

Q: How did the “concentration without growth inhibition in rich media” value (B. subtilis) turn out when `NCCS(=O)(=O)C[C@H](N)C(=O)O` [Compound 1, L-3-[(2-aminoethyl)-sulfonyl]-alanine] was run?
A: > 512 µg/mL

Q: What about the “concentration without growth inhibition in rich media” value (B. anthracis) of the same molecule?
A: > 512 µg/mL
